In PubChem BioAssay (EPA / NIEHS):
This list was built around the results that the source calls inconclusive (neither active nor inactive); the mix of calls is not that of the screen. Potencies of inconclusive entries are doubtful fits and often do not repeat. The source made the active and inactive calls. How the source made its calls: active means hit-call score of the fitted dose curve at least 0.9, where 1 is the maximum; inconclusive means response in the unintended direction; inactive means score below 0.9.

By UniProt entry, the sequences of proteins in these tests, tags left out. Where a name states a change or a piece, a line headed by the entry shows the natural chain unless it says otherwise.
UniProt P10276, whole entry, looked up: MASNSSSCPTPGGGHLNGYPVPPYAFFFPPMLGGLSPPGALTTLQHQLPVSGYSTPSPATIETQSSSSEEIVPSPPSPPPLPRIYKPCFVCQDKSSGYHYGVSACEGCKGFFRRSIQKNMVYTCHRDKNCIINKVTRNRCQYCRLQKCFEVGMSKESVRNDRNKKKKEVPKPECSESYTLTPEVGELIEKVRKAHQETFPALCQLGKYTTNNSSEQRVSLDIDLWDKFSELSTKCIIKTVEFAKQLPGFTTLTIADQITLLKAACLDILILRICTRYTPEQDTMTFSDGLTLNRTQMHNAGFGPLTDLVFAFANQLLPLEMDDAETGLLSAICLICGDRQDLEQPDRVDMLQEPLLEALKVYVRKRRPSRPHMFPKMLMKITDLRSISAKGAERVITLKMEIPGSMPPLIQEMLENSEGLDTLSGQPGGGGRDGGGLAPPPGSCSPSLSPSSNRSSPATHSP
UniProt P13631, whole entry, looked up: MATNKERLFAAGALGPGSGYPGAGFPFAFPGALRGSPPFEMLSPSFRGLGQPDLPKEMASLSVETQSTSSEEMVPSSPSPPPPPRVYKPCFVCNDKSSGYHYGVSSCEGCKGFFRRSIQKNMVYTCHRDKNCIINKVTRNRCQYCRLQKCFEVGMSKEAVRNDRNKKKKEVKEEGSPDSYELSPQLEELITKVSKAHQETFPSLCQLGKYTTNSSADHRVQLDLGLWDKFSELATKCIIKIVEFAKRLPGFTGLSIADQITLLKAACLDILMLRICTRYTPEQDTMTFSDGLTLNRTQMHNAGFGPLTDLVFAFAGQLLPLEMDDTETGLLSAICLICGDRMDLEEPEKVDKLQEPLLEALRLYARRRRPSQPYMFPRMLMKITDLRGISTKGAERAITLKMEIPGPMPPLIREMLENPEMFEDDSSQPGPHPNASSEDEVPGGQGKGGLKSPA
UniProt Q92753: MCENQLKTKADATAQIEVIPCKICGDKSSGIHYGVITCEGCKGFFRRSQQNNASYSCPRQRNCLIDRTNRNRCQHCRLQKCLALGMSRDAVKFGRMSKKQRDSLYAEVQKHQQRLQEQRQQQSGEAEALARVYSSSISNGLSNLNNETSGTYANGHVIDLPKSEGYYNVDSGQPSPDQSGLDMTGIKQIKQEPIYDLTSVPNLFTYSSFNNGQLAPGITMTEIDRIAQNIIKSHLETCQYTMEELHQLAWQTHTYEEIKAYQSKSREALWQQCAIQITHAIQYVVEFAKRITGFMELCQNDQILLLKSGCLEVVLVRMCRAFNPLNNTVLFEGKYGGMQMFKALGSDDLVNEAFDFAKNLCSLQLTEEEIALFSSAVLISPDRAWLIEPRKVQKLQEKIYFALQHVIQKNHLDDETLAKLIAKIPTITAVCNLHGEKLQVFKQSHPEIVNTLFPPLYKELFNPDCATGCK
UniProt P51449: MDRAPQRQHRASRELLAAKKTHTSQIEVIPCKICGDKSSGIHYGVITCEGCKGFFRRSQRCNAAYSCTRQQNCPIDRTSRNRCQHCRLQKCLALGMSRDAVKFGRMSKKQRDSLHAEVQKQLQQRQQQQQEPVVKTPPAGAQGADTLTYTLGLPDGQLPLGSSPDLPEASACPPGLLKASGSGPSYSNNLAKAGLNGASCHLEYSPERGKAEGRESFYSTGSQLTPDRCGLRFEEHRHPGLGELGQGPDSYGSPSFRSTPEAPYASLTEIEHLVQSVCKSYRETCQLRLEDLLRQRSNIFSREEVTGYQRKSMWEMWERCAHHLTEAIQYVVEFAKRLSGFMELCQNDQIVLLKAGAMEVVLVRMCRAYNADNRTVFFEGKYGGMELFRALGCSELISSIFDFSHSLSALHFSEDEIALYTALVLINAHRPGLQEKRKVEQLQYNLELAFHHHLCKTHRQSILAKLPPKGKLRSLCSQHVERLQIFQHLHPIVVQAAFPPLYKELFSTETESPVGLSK
UniProt P19793: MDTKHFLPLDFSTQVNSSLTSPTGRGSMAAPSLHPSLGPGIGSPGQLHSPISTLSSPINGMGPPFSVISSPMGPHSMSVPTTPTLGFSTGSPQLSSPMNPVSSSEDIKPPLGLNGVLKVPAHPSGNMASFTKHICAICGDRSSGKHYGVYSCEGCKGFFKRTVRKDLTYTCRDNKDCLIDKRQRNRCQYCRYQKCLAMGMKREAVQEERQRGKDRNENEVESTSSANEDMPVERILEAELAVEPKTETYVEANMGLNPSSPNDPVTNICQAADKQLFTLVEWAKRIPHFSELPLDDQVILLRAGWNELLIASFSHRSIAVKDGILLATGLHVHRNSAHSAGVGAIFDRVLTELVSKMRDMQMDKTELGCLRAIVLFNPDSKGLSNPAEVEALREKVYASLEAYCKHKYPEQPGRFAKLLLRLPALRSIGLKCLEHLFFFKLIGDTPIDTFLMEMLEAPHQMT
UniProt P28702: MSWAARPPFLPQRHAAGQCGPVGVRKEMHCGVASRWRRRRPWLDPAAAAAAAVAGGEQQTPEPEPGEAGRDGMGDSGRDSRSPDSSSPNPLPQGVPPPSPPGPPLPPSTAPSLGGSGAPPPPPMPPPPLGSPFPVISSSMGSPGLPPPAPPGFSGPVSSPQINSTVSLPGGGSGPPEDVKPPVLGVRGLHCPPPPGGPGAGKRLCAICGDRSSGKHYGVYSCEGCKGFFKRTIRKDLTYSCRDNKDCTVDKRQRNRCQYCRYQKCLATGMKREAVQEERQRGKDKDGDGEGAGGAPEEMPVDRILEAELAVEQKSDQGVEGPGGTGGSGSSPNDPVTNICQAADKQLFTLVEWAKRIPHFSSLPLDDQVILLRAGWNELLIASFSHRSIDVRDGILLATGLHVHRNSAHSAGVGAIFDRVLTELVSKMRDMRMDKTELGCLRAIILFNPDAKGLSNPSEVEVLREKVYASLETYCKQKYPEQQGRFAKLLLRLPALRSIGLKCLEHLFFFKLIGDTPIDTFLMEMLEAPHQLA
UniProt P10827: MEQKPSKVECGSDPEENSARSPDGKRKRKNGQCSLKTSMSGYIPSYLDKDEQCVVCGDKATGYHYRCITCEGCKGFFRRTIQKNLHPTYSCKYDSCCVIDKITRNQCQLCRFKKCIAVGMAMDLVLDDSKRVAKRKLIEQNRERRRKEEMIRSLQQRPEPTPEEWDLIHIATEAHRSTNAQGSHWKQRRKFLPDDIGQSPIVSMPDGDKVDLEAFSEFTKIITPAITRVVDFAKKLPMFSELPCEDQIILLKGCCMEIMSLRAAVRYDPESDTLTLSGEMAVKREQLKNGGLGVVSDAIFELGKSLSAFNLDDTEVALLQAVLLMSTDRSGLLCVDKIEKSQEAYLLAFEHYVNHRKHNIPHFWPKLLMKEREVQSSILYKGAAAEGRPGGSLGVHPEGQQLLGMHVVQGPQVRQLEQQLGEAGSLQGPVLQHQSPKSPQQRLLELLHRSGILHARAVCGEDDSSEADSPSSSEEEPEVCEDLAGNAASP
UniProt P11473: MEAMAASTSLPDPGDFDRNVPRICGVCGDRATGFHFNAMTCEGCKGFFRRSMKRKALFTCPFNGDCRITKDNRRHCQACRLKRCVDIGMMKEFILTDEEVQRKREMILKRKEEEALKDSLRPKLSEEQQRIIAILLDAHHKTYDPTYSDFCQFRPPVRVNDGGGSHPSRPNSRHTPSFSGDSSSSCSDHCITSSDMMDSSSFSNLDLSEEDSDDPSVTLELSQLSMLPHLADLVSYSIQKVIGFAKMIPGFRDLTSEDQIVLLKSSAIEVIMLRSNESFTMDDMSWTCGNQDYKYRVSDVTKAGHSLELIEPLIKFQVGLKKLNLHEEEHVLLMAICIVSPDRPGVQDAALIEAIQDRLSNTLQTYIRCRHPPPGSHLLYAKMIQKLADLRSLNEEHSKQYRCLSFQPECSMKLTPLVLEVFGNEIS

Key:
[1] = target: Retinoic acid receptor alpha (Homo sapiens) (UniProt P10276); assay: ATG_RARa_TRANS: Attagene TRANS-FACTORIAL HepG2 Assay for human Retinoic Acid Receptor alpha (RARa) (AID 2283005);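 on AC50: potency for increased reporter signal meaning RARa activation over DMSO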
Procedure, shortened: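 HepG2 transiently transfected with multiplex GAL4-UAS reporter units including a human RARa–GAL4 chimera; 24 h compound exposure. Reporter mRNA quantified by RT-PCR, 6-FAM labeling and capillary electrophoresis; gain of signal versus DMSO.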

[2] = target: human Retinoic Acid Receptor gamma (RARg), RARG (gene 5916) (UniProt P13631); assay: ATG_RARg_TRANS: Attagene TRANS-FACTORIAL HepG2 Assay for human Retinoic Acid Receptor gamma (RARg) (AID 2283009);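 on AC50: AC50 is for reporter induction above DMSO meaning RARg activation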
Procedure, shortened: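 HepG2 cells transiently transfected with multiplexed reporter units expressing chimeric RARg-GAL4 and GAL4-UAS-driven reporters; 24 h compound exposure. Reporter mRNA quantified by RT-PCR with fluorescent labelling and capillary electrophoresis; gain-of-signal fitted relative to DMSO baseline.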

[3] = target: human RAR-related Orphan Receptor beta (RORb), RORB (gene 6096) (UniProt Q92753); assay: ATG_RORb_TRANS: Attagene TRANS-FACTORIAL HepG2 Assay for human RAR-related Orphan Receptor beta (RORb) (AID 2283010);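 on AC50: potency for increased reporter mRNA meaning activation of RORb-Gal4 chimera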
Procedure, shortened: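 HepG2 cells were transiently transfected with multiplexed GAL4-UAS reporter units expressing chimeric nuclear receptor–GAL4 proteins, then dosed for 24 h. Reporter mRNA was quantified by RT-PCR with fluorescent labelling and capillary electrophoresis; gain of signal was fitted relative to DMSO.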

[4] = target: human RAR-related Orphan Receptor gamma (RORg), RORC (gene 6097) (UniProt P51449); assay: ATG_RORg_TRANS: Attagene TRANS-FACTORIAL HepG2 Assay for human RAR-related Orphan Receptor gamma (RORg) (AID 2283011);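 on AC50: potency for induction of reporter transcripts above DMSO so activators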
Procedure, shortened: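 Transient MRTU transfection of HepG2 (TRANS format, exogenous NR-Gal4 chimera). 24 h dosing. Total RNA → oligo(dT) RT → PCR → 6-FAM labelling → HpaI cut → CE. Gain vs DMSO.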

[5] = target: Retinoic acid receptor RXR-alpha (Homo sapiens) (UniProt P19793); assay: ATG_RXRa_TRANS: Attagene TRANS-FACTORIAL HepG2 Assay for human Retinoid X Receptor alpha (RXRa) (AID 2283012)
Procedure, shortened: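 HepG2 cells transiently transfected with multiplexed GAL4-UAS reporter units and chimeric NR-GAL4 fusions, dosed 24 h. Reporter mRNA measured by RT-PCR, FAM labelling, HpaI digestion and capillary electrophoresis; gain-of-signal fitted relative to DMSO baseline.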

[6] = target: human Retinoid X Receptor beta (RXRb), RXRB (gene 6257) (UniProt P28702); assay: ATG_RXRb_TRANS: Attagene TRANS-FACTORIAL HepG2 Assay for human Retinoid X Receptor beta (RXRb) (AID 2283013)
Procedure, shortened: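 HepG2 cells transiently transfected with multiplexed reporter units driven by GAL4-UAS and exogenous chimeric NR-Gal4 proteins; treated 24 h. Reporter mRNA measured by RT-PCR, 6-FAM labelling and capillary electrophoresis; gain-of-signal fitted versus DMSO baseline.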

[7] = target: human Thyroid Receptor alpha (THRa1), THRA (gene 7067) (UniProt P10827); assay: ATG_THRa1_TRANS: Attagene TRANS-FACTORIAL HepG2 Assay for human Thyroid Receptor alpha (THRa1) (AID 2283014)
Procedure, shortened: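 Transient HepG2 transfection, NR-Gal4 chimera driving GAL4-UAS reporters; 24 h compound exposure; total RNA, oligo(dT) RT, PCR, fluorescent primer extension, capillary electrophoresis. Upward direction vs DMSO control.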

[8] = target: human Vitamin D Receptor (VDR), VDR (gene 7421) (UniProt P11473); assay: ATG_VDR_TRANS: Attagene TRANS-FACTORIAL HepG2 Assay for human Vitamin D Receptor (VDR) (AID 2283022)
Procedure, shortened: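 RT-PCR/capillary electrophoresis read-out of reporter mRNA induction in transiently transfected HepG2; 24 h dosing; chimeric NR-Gal4 (TRANS format); gain-of-signal fit against DMSO baseline.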

With `CC(C)COC(=O)C=Cc1ccccc1` the AC50 [1] was inconclusive: 125 µM, the AC50 [2] was inconclusive: 37.6 µM and the outcome [3] was “inactive”. The AC50 [4] was inconclusive: 100 µM, the outcome [5] was “inactive” and the AC50 [6] was inconclusive: 100 µM. For the same compound, the outcome [7] was “inactive”.
For `c1ccc(-c2ccccn2)nc1`, the outcome [1] was “inactive”, the outcome [2] was “inactive” and the AC50 [3] was inconclusive: 170 µM. For the same compound, the AC50 [4] was inconclusive: 100 µM, the outcome [5] was “inactive” and the AC50 [6] was inconclusive: 100 µM.
For `CC(=O)N1CCN(c2ccc(OC[C@H]3CO[C@](Cn4ccnc4)(c4ccc(Cl)cc4Cl)O3)cc2)CC1`, the AC50 [1] was inconclusive: 57.8 µM, the AC50 [2] was inconclusive: 56.3 µM and the AC50 [3] was inconclusive: 8.44 µM. The outcome [4] was “inactive”, the AC50 [5] was inconclusive: 33.4 µM and the AC50 [6] was inconclusive: 33.4 µM. The AC50 [7] was inconclusive: 0.00599 µM.
With `C=CC(=O)OCCCCCCOC(=O)C=C` the AC50 [1] was inconclusive: 2.65 µM, the AC50 [2] was inconclusive: 23.4 µM and the AC50 [3] was inconclusive: 100 µM.
For `CC(C)CC=C(C=O)c1ccccc1`, the AC50 [1] was inconclusive: 178 µM, the AC50 [2] was inconclusive: 19.8 µM and the AC50 [3] was inconclusive: 5.48 µM. For the same compound, the AC50 [4] was inconclusive: 24.4 µM, the AC50 [5] was inconclusive: 100 µM and the outcome [6] was “inactive”. For the same compound, the AC50 [7] was inconclusive: 100 µM.
With `OCCCC(F)(F)C(F)(F)C(F)(F)C(F)(F)C(F)(F)C(F)(F)C(F)(F)C(F)(F)F` the outcome [1] was “inactive”, the outcome [2] was “inactive” and the AC50 [3] was inconclusive: 50 µM. For the same compound, the AC50 [4] was inconclusive: 24.4 µM and the AC50 [5] was active: 23.8 µM.
With `C=C[C@@]1(C)CC(=O)[C@]2(O)[C@@]3(C)[C@@H](O)CCC(C)(C)[C@@H]3[C@H](O)[C@H](OC(C)=O)[C@@]2(C)O1` the outcome [1] was “inactive”, the outcome [2] was “inactive” and the outcome [3] was “inactive”. The AC50 [4] was inconclusive: 100 µM, the AC50 [5] was active: 26.9 µM and the AC50 [6] was active: 3.64 µM. The AC50 [7] was active: 33.4 µM and the outcome [8] was “inactive”.
In the case of `O=C(O)c1ccccc1C(=O)OCc1ccccc1`, the outcome [1] is reported as “inactive”, the AC50 [2] is reported as inconclusive: 16 µM and the AC50 [3] is reported as inconclusive: 25.5 µM. For the same compound, the outcome [4] was “inactive”, the AC50 [6] was inconclusive: 5.49 µM and the AC50 [7] was inconclusive: 19.8 µM.
`O=C1CCCCCCCCCCCCCC1` was tested, and the AC50 [1] was inconclusive: 168 µM, the AC50 [2] was inconclusive: 183 µM and the AC50 [3] was inconclusive: 164 µM. For the same compound, the AC50 [4] was inconclusive: 100 µM, the AC50 [5] was active: 26.5 µM and the AC50 [7] was inconclusive: 172 µM. For the same compound, the outcome [8] was “inactive”.
For `C=CCCCCCCCCC(=O)OCCCC`, the AC50 [1] was inconclusive: 100 µM, the AC50 [2] was inconclusive: 182 µM and the AC50 [3] was inconclusive: 100 µM. For the same compound, the AC50 [4] was inconclusive: 100 µM, the AC50 [6] was active: 104 µM and the AC50 [7] was inconclusive: 100 µM.
